# Measurements reported in PubChem BioAssay AID504774 (Drosophila RNAi Screening Center, 2011).
# Test: 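Genes required for cells to withstand methyl methanesulphonate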 (primary screen)
# Cells: Drosophila Kc167 cells
# Knock-down reagent: long dsRNA against Drosophila genes, about 0.25 µg dsRNA per well
# Time to read-out: about 6 days: 3 days knock-down, then 3 days with or without MMS
# Challenge: methyl methanesulphonate 0.004% (w/v) for 3 days after knock-down
# Measurement: 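ATP-dependent luminescence as a measure of live cells in MMS-exposed wells, quantile normalised within each plate, with replicate values also given as a mean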
# Direction: mean viability with MMS and viability with MMS: higher = more surviving cells after MMS
# In all, the deposit lists about 23,000 reagents; this is a random part of those with a known target gene and a result. 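Values are quantile-normalised luminescence on an arbitrary scale; higher means more cells surviving MMS.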 Reagents against one gene are numbered here. Names joined by + are all predicted targets of the reagent.
predicted target,reagent no.,mean viability with MMS,"viability with MMS, replicate 1","viability with MMS, replicate 2"
Sgf29 (GeneID 37429),1,3.76e6,4.14e6,4.24e6
Jheh1 (GeneID 251984),1,3.47e6,3.98e6,3.88e6
CG32473 (GeneID 41636),1,3.53e6,3.93e6,4.09e6
CG32473 (GeneID 41636),2,3.42e6,3.90e6,3.82e6
CG11980 (GeneID 41078),1,3.60e6,4.09e6,4.10e6
CheB74a (GeneID 3772073),1,3.48e6,3.89e6,4.01e6
CG13071 (GeneID 39781),1,3.57e6,4.03e6,4.07e6
CG31800 (GeneID 318947),1,3.50e6,3.94e6,4.01e6
Vago (GeneID 32040),1,3.67e6,4.14e6,4.13e6
MtnB (GeneID 42424),1,3.70e6,4.13e6,4.15e6
Pkn + Tsen15,1,3.35e6,3.91e6,3.83e6
Ilp6 (GeneID 31220),1,3.58e6,3.87e6,4.26e6
Atat (GeneID 39086),1,3.41e6,3.82e6,3.94e6
CG7694 (GeneID 42230),1,3.54e6,3.92e6,4.11e6
CG15097 (GeneID 37172),1,3.55e6,4.08e6,3.97e6
CAH16 (GeneID 50101),1,3.25e6,3.67e6,3.62e6
PlexA (GeneID 43832),1,3.46e6,3.86e6,3.99e6
alphaKap4 (GeneID 38675),1,3.41e6,3.93e6,3.79e6
ear (GeneID 44451),1,3.45e6,3.84e6,3.96e6
SMC6 (GeneID 42876),1,3.58e6,4.05e6,4.06e6
CG3014 (GeneID 40922),1,3.57e6,4.09e6,4.01e6
CG17078 (GeneID 33195),1,3.44e6,3.83e6,3.93e6
Vha14-2 (GeneID 40748),1,3.79e6,4.22e6,4.30e6
MstProx + Mst84Da,1,3.45e6,3.79e6,4.05e6
CG32579 (GeneID 318096),1,3.47e6,3.94e6,3.91e6
oc (GeneID 31802),1,3.47e6,3.96e6,3.93e6
CG45263 (GeneID 50003),1,3.51e6,4.06e6,3.93e6
CG45263 (GeneID 50003),2,3.55e6,4.04e6,4.03e6
CG45263 (GeneID 50003),3,3.73e6,4.10e6,4.30e6
CG45263 (GeneID 50003),4,3.48e6,3.95e6,3.96e6

Records above whose gene name starts with S or s:
predicted target,reagent no.,mean viability with MMS,"viability with MMS, replicate 1","viability with MMS, replicate 2"
Sgf29 (GeneID 37429),1,3.76e6,4.14e6,4.24e6
SMC6 (GeneID 42876),1,3.58e6,4.05e6,4.06e6
